This assay has as its target human integrin β2 TMD construct (V667 to Y713), C673S (human) (UniProt P05107). Nature of the assay: NMR titration; different concentrations of unlabeled β2 peptide titrated into 0.6 mM 15N-labeled β2 TMD peptide in mixture lipid bicelles (24 mM POPG, 48 mM POPC), 240 mM DHPC, 20 mM Bis-Tris pH 6.7; both purified.

The chains behind the UniProt entries cited, without tags or fusion partners. Where a name states a change or a piece, a line headed by the entry shows the natural chain unless it says otherwise. A line that says so, or that is headed by a name, gives the form on record, which may keep a tag or linker.
human integrin β2 TMD construct (V667 to Y713), C673S (P05107, form named): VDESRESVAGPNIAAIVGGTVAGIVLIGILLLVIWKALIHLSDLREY

No constants are given. Whether binding was seen depends on the method and setting.

Take “human integrin β2 TMD construct (V667 to Y713), C673S (from UniProt P05107 689-735) (domain or fragment)”: the binding result is “no binding”.

The record behind these values is article PMC6261646.
